Assay results: patent US20030148445A1 (NATIONAL JEWISH MEDICAL AND RESEARCH CENTER, published 2003)
Results are given in words; binding and its absence hold for the method and conditions named. In cells and extracts the contact can be indirect. Some binding calls cover weakened binding; strength is not graded here.

Sequences of proteins named here, by UniProt entry; tags and fusion partners are left off.
UniProt O00463: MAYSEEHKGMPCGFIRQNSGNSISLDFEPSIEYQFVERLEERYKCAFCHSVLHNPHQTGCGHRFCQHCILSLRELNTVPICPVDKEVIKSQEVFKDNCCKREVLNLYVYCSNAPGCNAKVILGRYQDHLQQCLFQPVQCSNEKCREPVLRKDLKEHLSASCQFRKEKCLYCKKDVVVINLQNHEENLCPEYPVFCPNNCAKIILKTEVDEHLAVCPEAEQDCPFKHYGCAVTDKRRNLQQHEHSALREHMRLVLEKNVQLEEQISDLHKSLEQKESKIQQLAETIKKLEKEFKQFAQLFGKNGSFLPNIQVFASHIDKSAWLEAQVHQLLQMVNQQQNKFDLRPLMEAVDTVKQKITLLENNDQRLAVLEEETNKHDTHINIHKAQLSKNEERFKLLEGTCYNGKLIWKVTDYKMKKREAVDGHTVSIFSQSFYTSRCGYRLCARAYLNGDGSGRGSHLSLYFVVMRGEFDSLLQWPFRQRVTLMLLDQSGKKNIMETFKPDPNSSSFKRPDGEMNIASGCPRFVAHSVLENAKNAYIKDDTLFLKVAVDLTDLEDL

Key:
TRAF5 [1] = biological target: TRAF5 (UniProt O00463); test: co-immunoprecipitation with anti-Flag antibody, Western blot with anti-HA antibody
TRAF5 [2] = biological target: TRAF5 (UniProt O00463); test: co-immunoprecipitation, Western blot (legend of FIG. 10B)

binding (TRAF5 [1]): binds
binding (TRAF5 [2]): binds
B1: C-terminal HA epitope-tagged BCMA (BCMA-HA) (receptor, not shown: small tags and cut ends)
chain: MLQMAGQCSQNEYFDSLLHACIPCQLRCSSNTPPLTCQRYCNASVTNSVKGTNAILWTCLGLSLIISLAVFVLMFLLRKISSEPLKDEFKNTGSGLLGMANIDLEKSRTGDEIILPRGLEYTVEECTCEDCIKSKPKVDSDHCFPLPAMEEGATILVTTKTNDYCKSLPAALSATEIEKSISAR
notes: also called HA-BCMA; B Cell Maturation Protein
